For the experiment, the target named is Myc-tagged mouse Per1 (wild type) (mouse) (UniProt O35973). As to the kind of experiment: co-IP; COS7 cells co-transfected with Myc-Per and Flag-Cry expression vectors; whole-cell extracts precipitated with anti-MYC antibody on protein G-Sepharose, 4 °C, 2 h; western blotting. Background: A western blot detects proteins with antibodies after separation by electrophoresis.

By UniProt entry, the sequences of proteins in these tests, tags left out.
UniProt O35973: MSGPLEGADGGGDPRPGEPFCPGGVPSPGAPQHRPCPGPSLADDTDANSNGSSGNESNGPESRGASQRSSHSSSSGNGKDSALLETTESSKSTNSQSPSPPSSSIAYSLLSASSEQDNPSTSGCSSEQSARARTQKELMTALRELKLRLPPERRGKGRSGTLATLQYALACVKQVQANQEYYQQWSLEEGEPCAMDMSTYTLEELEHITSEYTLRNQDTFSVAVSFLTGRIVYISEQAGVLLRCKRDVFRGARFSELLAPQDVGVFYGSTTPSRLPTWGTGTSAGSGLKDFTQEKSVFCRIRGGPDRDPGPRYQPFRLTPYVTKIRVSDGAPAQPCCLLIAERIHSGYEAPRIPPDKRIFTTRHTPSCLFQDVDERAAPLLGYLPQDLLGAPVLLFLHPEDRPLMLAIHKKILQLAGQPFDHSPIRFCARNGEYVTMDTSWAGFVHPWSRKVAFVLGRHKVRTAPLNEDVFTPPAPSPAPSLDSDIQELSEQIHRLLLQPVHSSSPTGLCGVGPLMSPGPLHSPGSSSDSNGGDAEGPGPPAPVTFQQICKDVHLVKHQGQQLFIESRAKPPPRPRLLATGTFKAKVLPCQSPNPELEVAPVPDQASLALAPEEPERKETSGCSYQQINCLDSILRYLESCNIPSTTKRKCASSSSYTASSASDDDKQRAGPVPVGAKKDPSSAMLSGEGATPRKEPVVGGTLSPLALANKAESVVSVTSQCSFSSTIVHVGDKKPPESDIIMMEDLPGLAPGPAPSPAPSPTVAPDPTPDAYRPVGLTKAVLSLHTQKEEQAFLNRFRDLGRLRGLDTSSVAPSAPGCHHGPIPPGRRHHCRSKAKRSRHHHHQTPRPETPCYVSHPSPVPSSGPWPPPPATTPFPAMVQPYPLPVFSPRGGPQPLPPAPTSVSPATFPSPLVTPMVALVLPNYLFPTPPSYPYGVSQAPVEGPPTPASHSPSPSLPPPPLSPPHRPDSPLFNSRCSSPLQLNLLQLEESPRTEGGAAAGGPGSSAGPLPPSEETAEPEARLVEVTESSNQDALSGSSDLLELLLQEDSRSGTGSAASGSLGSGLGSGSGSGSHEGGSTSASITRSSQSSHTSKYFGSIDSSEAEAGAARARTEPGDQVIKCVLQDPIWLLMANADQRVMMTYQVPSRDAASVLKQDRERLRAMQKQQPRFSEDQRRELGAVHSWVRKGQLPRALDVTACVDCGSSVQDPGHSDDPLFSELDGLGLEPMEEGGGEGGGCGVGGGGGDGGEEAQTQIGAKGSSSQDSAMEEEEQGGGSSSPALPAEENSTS

These are yes or no findings as the source states them, for the method shown. In cells and extracts the contact can be indirect. Some entries that bind do so weakly or less than the wild type. Sequences can lack the tags named with a protein.

B1: Flag-tagged Cry1 (protein, UniProt P97784 1-606)
chain: MGVNAVHWFRKGLRLHDNPALKECIQGADTIRCVYILDPWFAGSSNVGINRWRFLLQCLEDLDANLRKLNSRLFVIRGQPADVFPRLFKEWNITKLSIEYDSEPFGKERDAAIKKLATEAGVEVIVRISHTLYDLDKIIELNGGQPPLTYKRFQTLVSKMEPLEMPADTITSDVIGKCMTPLSDDHDEKYGVPSLEELGFDTDGLSSAVWPGGETEALTRLERHLERKAWVANFERPRMNANSLLASPTGLSPYLRFGCLSCRLFYFKLTDLYKKVKKNSSPPLSLYGQLLWREFFYTAATNNPRFDKMEGNPICVQIPWDKNPEALAKWAEGRTGFPWIDAIMTQLRQEGWIHHLARHAVACFLTRGDLWISWEEGMKVFEELLLDADWSINAGSWMWLSCSSFFQQFFHCYCPVGFGRRTDPNGDYIRRYLPVLRGFPAKYIYDPWNAPEGIQKVAKCLIGVNYPKPMVNHAEASRLNIERMKQIYQQLSRYRGLGLLASVPSNSNGNGGLMGYAPGENVPSCSSSGNGGLMGYAPGENVPSCSGGNCSQGSGILHYAHGDSQQTHSLKQGRSSAGTGLSSGKRPSQEEDAQSVGPKVQRQSSN
With B1, the binding entry is “binds”.

B2: Flag-tagged Cry2 (protein, UniProt Q9R194 1-592)
chain: MAAAAVVAATVPAQSMGADGASSVHWFRKGLRLHDNPALLAAVRGARCVRCVYILDPWFAASSSVGINRWRFLLQSLEDLDTSLRKLNSRLFVVRGQPADVFPRLFKEWGVTRLTFEYDSEPFGKERDAAIMKMAKEAGVEVVTENSHTLYDLDRIIELNGQKPPLTYKRFQALISRMELPKKPAVAVSSQQMESCRAEIQENHDDTYGVPSLEELGFPTEGLGPAVWQGGETEALARLDKHLERKAWVANYERPRMNANSLLASPTGLSPYLRFGCLSCRLFYYRLWDLYKKVKRNSTPPLSLFGQLLWREFFYTAATNNPRFDRMEGNPICIQIPWDRNPEALAKWAEGKTGFPWIDAIMTQLRQEGWIHHLARHAVACFLTRGDLWVSWESGVRVFDELLLDADFSVNAGSWMWLSCSAFFQQFFHCYCPVGFGRRTDPSGDYIRRYLPKLKGFPSRYIYEPWNAPESVQKAAKCIIGVDYPRPIVNHAETSRLNIERMKQIYQQLSRYRGLCLLASVPSCVEDLSHPVAEPGSSQAGSISNTGPRALSSGPASPKRKLEAAEEPPGEELTKRARVTEMPTQEPASKDS
Consider B2, for which the binding entry was “binds”.
